Experimental data published in paper PMC10662051.
No constants are given. Whether binding was seen depends on the method and setting. Binding seen in cells or lysates may run through a third protein. Some entries that bind do so weakly or less than the wild type.

The chains behind the UniProt entries cited, without tags or fusion partners.
UniProt Q9UJW0: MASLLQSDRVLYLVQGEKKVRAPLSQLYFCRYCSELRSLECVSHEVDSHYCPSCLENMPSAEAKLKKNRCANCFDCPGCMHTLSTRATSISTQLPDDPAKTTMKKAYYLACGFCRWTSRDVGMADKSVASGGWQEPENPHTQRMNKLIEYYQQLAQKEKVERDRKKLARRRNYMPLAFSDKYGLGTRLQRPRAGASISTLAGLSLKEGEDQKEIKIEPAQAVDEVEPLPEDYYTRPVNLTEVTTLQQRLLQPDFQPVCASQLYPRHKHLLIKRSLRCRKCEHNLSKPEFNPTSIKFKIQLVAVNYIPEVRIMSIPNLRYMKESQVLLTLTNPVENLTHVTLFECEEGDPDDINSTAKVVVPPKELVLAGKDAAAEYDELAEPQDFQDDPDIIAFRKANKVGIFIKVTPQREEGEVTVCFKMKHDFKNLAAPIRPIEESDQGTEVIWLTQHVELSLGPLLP
UniProt Q13561: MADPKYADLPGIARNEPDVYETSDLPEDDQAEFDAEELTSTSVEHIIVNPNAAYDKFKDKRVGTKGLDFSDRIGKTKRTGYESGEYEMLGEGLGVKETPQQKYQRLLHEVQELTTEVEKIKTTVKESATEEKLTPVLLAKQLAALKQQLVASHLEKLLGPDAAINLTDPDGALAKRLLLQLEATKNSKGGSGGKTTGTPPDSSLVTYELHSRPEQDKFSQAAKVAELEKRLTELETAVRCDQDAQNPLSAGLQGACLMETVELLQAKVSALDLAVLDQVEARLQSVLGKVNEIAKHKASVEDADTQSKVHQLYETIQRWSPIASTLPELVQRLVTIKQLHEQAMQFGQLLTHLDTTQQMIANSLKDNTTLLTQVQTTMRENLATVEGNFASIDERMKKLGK

Target: dynactin p62 with C-terminal Twin-Strep affinity tag (bait for the dynactin complex) (UniProt Q9UJW0)
Assay: pull-down; p62-TwinStrep expressed in HEK293F as bait, clarified lysate on streptactin beads 120 min at 4 °C, eluted with 2.5 mM d-desthiobiotin, Superose 6 SEC; subunits identified by SDS-PAGE and Western blot

| binding | Substance |
| --- | --- |
| binds | dynactin p50 (from UniProt Q13561 1-401) |
| binds | dynactin p150 (from UniProt Q14203-1 1-1278) |
